Where a chain is given by its changes, count along the chain named. These are yes or no findings as the source states them, for the method shown. Some results given as binding are weak or reduced against the parent protein; the word gives no strength.
T1: ADAMTS13 MD recombinant antigen (ADAMTS13 metalloprotease domain (MP) linked with a disintegrin-like domain (D)) (UniProt Q76LX8)
T1 sequence (looked up): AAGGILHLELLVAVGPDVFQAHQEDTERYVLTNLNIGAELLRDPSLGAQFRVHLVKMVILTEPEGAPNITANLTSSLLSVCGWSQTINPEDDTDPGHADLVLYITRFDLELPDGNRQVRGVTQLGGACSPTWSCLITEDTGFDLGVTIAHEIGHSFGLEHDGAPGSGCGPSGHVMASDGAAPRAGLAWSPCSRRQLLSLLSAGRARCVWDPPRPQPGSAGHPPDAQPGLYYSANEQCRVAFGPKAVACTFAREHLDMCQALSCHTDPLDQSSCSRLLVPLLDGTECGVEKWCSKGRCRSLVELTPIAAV

B1: 1G2 antibody (antibody, mouse IgG1, kappa, V domains shown)
VH: QVQLRESGPGLVAPSQSLSITCTVSGFSLPRYGIHWVRQPPGKGLEWLGVIWAGGSTDYDSALMSRLSISKDTSKSQVFLKMSSLQTDDTAIYYCARAGGSQPFDYWGQGTTLTVSS
VL: DIKMTQSPSSMYASLGERVTITCKASRDINTYLSWFQQKPGKSPKTLISRANRLVDGVPSRFSGSGSGQDYSLSISSLEYEDMGFYYCLQYDEFPWTFGGGTKLVIKR
B2: 12D10 antibody (antibody, mouse IgG1, kappa, V domains shown)
VH: QVQLKESGPGLVAPSQSLSITCTVSGFSLTRYGVHWVRQPPGKGLEWLGVIWAGGSTNYKSALMSRLNITKDNSKSQVFLKMNGLQTDDTAIYFCARAGGSSSFDYWGQGTTLTVSS
VL: B1 VL with Y12N, R27Q, S34G, S49Y, D70G, S74T, F85I, V105E
B3: 9A7 antibody (antibody, mouse IgG2b, kappa, V domains shown)
VH: QVQLKESGPGLVAPSQSLSITCTVSGFSLTGYGIHWVRQPPGKGLEWLGVIWADGTTNSNSALMSRLSISKDNSKSQVFLKMTSLQTDDTAMYHCARAGGSQPFDYWGQGTTLTVSS
VL: B1 VL with R27Q, T31S, S49F, S74T, G84E, F85I, V105E

target: T1, ADAMTS13 MD recombinant antigen (ADAMTS13 metalloprotease domain (MP) linked with a disintegrin-like domain (D)); test: hybridoma supernatant ELISA on immobilized ADAMTS13 MD antigen

binding, binds:
B1, B2, B3
